Some of these results come from one statement about several compounds together.
Key:
[1] = system: Trypanosoma brucei rhodesiense; experiment: in vitro IC50 versus Trypanosoma brucei rhodesiense (T.b.r.); assay type: cell-based
Plasmodium falciparum = experiment: in vitro IC50 versus Plasmodium falciparum (P.f.); assay type: cell-based; conditions: read-out: IC-50 versus Plasmodium falciparum (p.f.)

## CNC(=N)Nc1ccc2c(c1)Cc1cc(NC(=N)NC)ccc1-2 [Compound 8a, 2,7-Bis(N′-methyl)guanidino-9H-fluorene]
[1]
  IC50: ≤ 13 nM
Plasmodium falciparum
  IC50: ≤ 10 nM
